Measured values reported in paper PMC3022033.
These are yes or no findings as the source states them, for the method shown. In cells and extracts the contact can be indirect. Where a sequence is shown, tags or fusion partners need not be part of it.

By UniProt entry, the sequences of proteins in these tests, tags left out.
UniProt Q07812: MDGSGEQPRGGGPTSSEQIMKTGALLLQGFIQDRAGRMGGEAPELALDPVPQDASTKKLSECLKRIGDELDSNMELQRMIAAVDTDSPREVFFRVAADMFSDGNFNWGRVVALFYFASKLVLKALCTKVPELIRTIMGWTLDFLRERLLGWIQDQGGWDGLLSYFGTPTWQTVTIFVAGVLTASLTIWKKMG

T1: Mieap-full (UniProt Q8TC71)
T1 sequence: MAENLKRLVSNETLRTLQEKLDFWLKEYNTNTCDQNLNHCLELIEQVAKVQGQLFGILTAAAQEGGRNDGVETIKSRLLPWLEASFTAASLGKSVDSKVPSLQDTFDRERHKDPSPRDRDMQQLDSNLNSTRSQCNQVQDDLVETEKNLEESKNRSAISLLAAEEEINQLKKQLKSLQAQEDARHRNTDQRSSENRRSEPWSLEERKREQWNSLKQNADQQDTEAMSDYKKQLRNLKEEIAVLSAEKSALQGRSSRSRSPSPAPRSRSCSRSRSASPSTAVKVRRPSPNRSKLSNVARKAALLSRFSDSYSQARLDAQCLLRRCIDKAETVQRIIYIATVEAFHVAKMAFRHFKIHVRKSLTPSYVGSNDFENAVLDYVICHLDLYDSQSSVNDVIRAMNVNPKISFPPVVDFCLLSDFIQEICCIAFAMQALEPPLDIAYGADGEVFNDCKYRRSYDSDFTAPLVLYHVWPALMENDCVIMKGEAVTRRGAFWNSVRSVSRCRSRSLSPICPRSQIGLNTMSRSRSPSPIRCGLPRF

B1: N-FLAG-tagged Bak (protein, UniProt Q16611 1-211)
chain: MASGQGPGPPRQECGEPALPSASEEQVAQDTEEVFRSYVFYRHQQEQEAEGVAAPADPEMVTLPLQPSSTMGQVGRQLAIIGDDINRRYDSEFQTMLQHLQPTAENAYEYFTKIATSLFESGINWGRVVALLGFGYRLALHVYQHGLTGFLGQVTRFVVDFMLHHCIARWIAQRGGWVAALNLGNGPILNVLVVLGVVLLGQFVVRRFFKS

Molecular target: T1, Mieap-full
Assay: co-IP; HCT116 cells transfected with N-FLAG-tagged plasmids and infected with Ad-Mieap vectors (MOI 5), lysed 36 h later in 1% NP40, 150 mM NaCl, 25 mM Tris-HCl pH 7.6; IP with rabbit anti-Mieap or mouse anti-FLAG antibody overnight at 4°C, blot with anti-FLAG or anti-Mieap; in Figure 4A with or without Ebselen

Molecule	binding
N-FLAG-tagged Bax (from UniProt Q07812 1-192)	no binding
B1	no binding
